Earlier results, collected in patent publication EP1144423B1, “BIS-TERPYRIDINE-PLATINUM(II) COMPLEXES” (ISIS INNOVATION LIMITED, priority 1999, dated 2000).
Where two headings read alike, the source gives them in different places.

Tested on: poly[d(A-T)2]
Details: cited from earlier work

## Cc1cc[n+]([Pt-2]23[n+]4ccccc4-c4cccc([n+]42)-c2cccc[n+]23)cc1.F[B-](F)(F)F.F[B-](F)(F)F [4-Picoline-2,2':6',2"-terpyridine-platinum(II) bis-tetrafluoroborate]
Most stable binding mode
  site size: about 4 base pairs
Second binding mode
  site size: approximately 2 base pairs
